Laboratory results reported in US20250326816A1 (KOREA UNIVERSITY RESEARCH AND BUSINESS FOUNDATION, published 2025).
These are yes or no findings as the source states them, for the method shown. Some binding calls cover weakened binding; strength is not graded here. Tags and fused reporters may be left off the sequences shown.

What was measured:
[1] = target: T1, Dimeric human ICOS (ICOS-Fc) (human, UniProt Q9Y6W8 21-140); assay: ELISA, ICOS-Fc coated at 4 ug/ml, ICOS-L variant titrated, anti-His-HRP
T1 construct: range 21-140; Fc at the C-terminus of ICOS to induce dimerization; Labeled with Alexa488 when used as probe in the flow cytometry on yeast; also called ICOS-Fc dimer protein; ICOS dimer protein; not shown: GS linker of glycine and serine; Fc region (domain) of human IgG antibody
T1 sequence (looked up): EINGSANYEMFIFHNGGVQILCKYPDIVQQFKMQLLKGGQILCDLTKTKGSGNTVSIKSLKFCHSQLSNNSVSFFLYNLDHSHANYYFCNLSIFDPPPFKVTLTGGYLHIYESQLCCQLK
Procedure: (§1) After washing four times, 50 μl of an anti-His-HRP conjugate was added and reacted at room temperature for 1 hour, and then washed four times. Thereafter, 50 μl of a 1-Step Ultra TMB-ELISA substrate solution (Thermo Fisher Scientific, 34028) was added to develop color, and then added with 50 μl each of 2 M H₂SO₄ to terminate the reaction, and then analyzed using an Epoch microplate spectrophotometer (BioTek).

[2] = target: T1, Dimeric human ICOS (ICOS-Fc); assay: bio-layer interferometry (Octet R8), ICOS-Fc captured on Protein A biosensor, 600 s association and 600 s dissociation
[3] = target: T1, Dimeric human ICOS (ICOS-Fc); assay: ELISA, ICOS-Fc coated at 4 ug/ml, ICOS-L variant titrated, anti-His-HRP (x axis printed as PD-L1 CO…ON (nM))
Procedure: as §1

binding [1]: binds
binding [2]: binds
binding [3]: binds
B1: A184 (ligand)
single chain: DTQEKEVRAMVGSDVELSCACPEGSRFDLNDVYVYWQTSESKTVVTYHIPQHSSLEYVDSRYRNRALMSPAGMLRGDFSLRLFNVTPQDEQKFHCLVLSPSLGFQEVLSVEVTLHVAANFSVPVVSAPHSPSQDELTFTCTSINGYPRPNVYWINKTDNSLLDQALQNDTVFLNMRGLYDVVSVLRIARTPSVNIGCCIENVLLQQNLTVGSQTGNDIGERDKITENPVSTGEKNAAT
notes: Soluble form without Fc; the Fc and atezolizumab fusions are m12, m15 and m18; also called control A184
